In patent US5504070 (dated 1996):

How the values were obtained:
[1] = general procedure: Fmoc solid-phase peptide synthesis in flow; Fmoc-Trp-AminoTech PA500; active ester (OPfp or ODhbt esters) or BOP/HOBt; settings: whole synthesis, Area %, scale 0.32 mmole
[2] = general procedure: Fmoc solid-phase peptide synthesis in flow; AminoTech PR500; active ester (OPfp or ODhbt esters) or BOP/HOBt; settings: whole synthesis, Area %, scale 0.43 mmole

| Substance | final HPLC purity [1] [%] | crude HPLC purity [2] [%] |
| --- | --- | --- |
| N-Acetyl-L-α-aspartyl-L-isoleucyl-L-Isoleucyl-L-tryptophan | 97.4 | – |
| N-Acetyl-L-α-aspartyl-L-valyI-L-asparaginyl-L-threonyl-L-prolyl-L-α-glutamine | – | 95.7 |
